Reference: patent US11479802B2, “Assays for screening activity of modulators of members of the hydroxy steroid (17-beta) dehydrogenase (HSD17B) family” (Regeneron Pharmaceuticals, Inc., priority 2017, dated 2022)
At least one structure is not confirmed: it was looked up by name or label, or the drawing left a doubt.

Key:
[1] = target: T1, HEK293 cells overexpressing HSD17B13 isoform A (Homo sapiens, UniProt Q7Z5P4); assay: HEK293 cell-based substrate consumption assay (LC-MS); conditions: 1 μM substrate, 2 hours or 48 hours
T1 construct: expressed in transfected cells; host or cells: HEK293
T1 sequence (Q7Z5P4 20-300): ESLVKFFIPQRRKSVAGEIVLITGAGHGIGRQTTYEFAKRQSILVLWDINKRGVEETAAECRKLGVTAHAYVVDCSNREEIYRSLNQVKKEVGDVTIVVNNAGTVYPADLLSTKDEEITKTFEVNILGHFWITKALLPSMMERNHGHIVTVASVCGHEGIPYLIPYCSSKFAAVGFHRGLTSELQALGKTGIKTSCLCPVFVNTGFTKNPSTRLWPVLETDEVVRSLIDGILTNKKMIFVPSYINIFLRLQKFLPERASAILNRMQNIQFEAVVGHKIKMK

[2] = target: T2, human HSD17B13 (Homo sapiens, UniProt Q7Z5P4); assay: Substrate screening of steroid and bioactive lipid libraries against purified recombinant HSD17B13 (NADH-linked luciferase assay); format: biochemical; conditions: Steroid Library, 50 μM steroid, 500 μM NAD+, 100 ng enzyme, 3 hours at 23° C.
T2 sequence (Q7Z5P4 20-300): T1 sequence (Q7Z5P4 20-300)
Experimental: To understand the functional consequences of premature truncation of the HSD17B13 protein due to rs72613567:TA (the associated variant, rs72613567, is an insertion of an adenine adjacent to the donor splice site of exon six (TA allele)), the enzymatic activity of isoforms A and D was evaluated in vitro using recombinant protein and nicotinamide […] dinucleotide as cofactor. Reactions were performed in a final volume of 40 μl of assay buffer (0.2 M Tris-HCl, pH 7.5) which contained 500 μM NAD^+, 5 μM bioactive lipid or 50 μM steroid (all in a final concentration of 5% DMSO), and 100 ng of recombinant human HSD17B13. Reactions were incubated for 3 hours, at 23° C., after which an equal volume detection reagent was added. Following a 1 hour incubation at 23° C., the relative light units (RLUs) were measured on an Envision Plate Reader (Perkin Elmer). Raw RLU values were normalized as percent of control (50 μM estradiol) following subtraction of negative control (5% DMSO) using the following formula: Percent of control (POC)=100×(Sample (RLU)−Negative CTRLaverage)/(Positive CTRLaverage−Negative CTRLaverage).

SMILES	conversion of substrate catalyzed by HSD17B13 in cells [1]	HSD17B13 Enzymatic Activity Relative Light Units [2] [RLU]
C[C@]12CC[C@@H]3c4ccc(O)cc4CC[C@H]3[C@@H]1CC[C@@H]2O [Estradiol]	catalyzed the conversion	
C[C@]12CCC(=O)C(O)=C1CC[C@@H]1[C@@H]2CC[C@]2(C)C(=O)CC[C@@H]12 [Formestane]		196520
